Reference: article PMC8384837
Numbering of substitutions follows the chain as printed. The list shows a part of the results. For some of these results: At the low end of the ranking the order means little.

Columns and labels:
Conditions in all cases: yeast three-hybrid, YBZ-1, SC-Leu-His + 0.5 mM 3-AT, 4 days
[1] = molecular target: T1, PUM1 PUF domain R6-RRK N1043R + Y1044R + Q1047K (Homo sapiens) (UniProt Q14671)
T1 sequence: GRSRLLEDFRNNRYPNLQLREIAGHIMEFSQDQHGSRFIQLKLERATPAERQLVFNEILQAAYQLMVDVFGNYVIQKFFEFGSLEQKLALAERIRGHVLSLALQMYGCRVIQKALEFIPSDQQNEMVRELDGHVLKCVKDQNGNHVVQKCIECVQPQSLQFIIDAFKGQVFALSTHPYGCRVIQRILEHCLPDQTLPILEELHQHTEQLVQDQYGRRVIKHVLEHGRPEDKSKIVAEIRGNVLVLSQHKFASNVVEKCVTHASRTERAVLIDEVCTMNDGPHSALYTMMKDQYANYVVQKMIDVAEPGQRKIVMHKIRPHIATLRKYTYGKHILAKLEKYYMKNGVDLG

[2] = molecular target: T2, PUM1 PUF domain R6-LWS N1043L + Y1044W + Q1047S (UniProt Q14671)
T2 sequence: T1 sequence with R216L, R217W, K220S

[3] = molecular target: T3, PUM1 PUF domain R6-LWV N1043L + Y1044W + Q1047V (UniProt Q14671)
T3 sequence: T1 sequence with R216L, R217W, K220V

[4] = molecular target: T4, PUM1 PUF domain R6-LYA N1043L + Q1047A (UniProt Q14671)
T4 sequence: T1 sequence with R216L, R217Y, K220A

[5] = molecular target: T5, PUM1 PUF domain R6-LYG N1043L + Q1047G (UniProt Q14671)
T5 sequence: T1 sequence with R216L, R217Y, K220G

[6] = molecular target: T6, PUM1 PUF domain R6-LYL N1043L + Q1047L (UniProt Q14671)
T6 sequence: T1 sequence with R216L, R217Y, K220L

[7] = molecular target: T7, PUM1 PUF domain R6-LYV N1043L + Q1047V (UniProt Q14671)
T7 sequence: T1 sequence with R216L, R217Y, K220V

[8] = molecular target: T8, PUM1 PUF domain R6-NRG Y1044R + Q1047G (UniProt Q14671)
T8 sequence: T1 sequence with R216N, K220G

[9] = molecular target: T9, PUM1 PUF domain R6-NRS Y1044R + Q1047S (UniProt Q14671)
T9 sequence: T1 sequence with R216N, K220S

[10] = molecular target: T10, PUM1 PUF domain R6-QRS N1043Q + Y1044R + Q1047S (UniProt Q14671)
T10 sequence: T1 sequence with R216Q, K220S

[11] = molecular target: T11, PUM1 PUF domain R6-RFG N1043R + Y1044F + Q1047G (UniProt Q14671)
T11 sequence: T1 sequence with R217F, K220G

[12] = molecular target: T12, PUM1 PUF domain R6-RFR N1043R + Y1044F + Q1047R (Homo sapiens) (UniProt Q14671)
T12 sequence: T1 sequence with R217F, K220R

[13] = molecular target: T13, PUM1 PUF domain R6-RFS N1043R + Y1044F + Q1047S (UniProt Q14671)
T13 sequence: T1 sequence with R217F, K220S

[14] = molecular target: T14, PUM1 PUF domain R6-RHG N1043R + Y1044H + Q1047G (UniProt Q14671)
T14 sequence: T1 sequence with R217H, K220G

[15] = molecular target: T15, PUM1 PUF domain R6-RRE N1043R + Y1044R + Q1047E (Homo sapiens) (UniProt Q14671)
T15 sequence: T1 sequence with K220E

[16] = molecular target: T16, PUM1 PUF domain R6-SFC N1043S + Y1044F + Q1047C (UniProt Q14671)
T16 sequence: T1 sequence with R216S, R217F, K220C

[17] = molecular target: T17, PUM1 PUF domain R6-SFG N1043S + Y1044F + Q1047G (Homo sapiens) (UniProt Q14671)
T17 sequence: T1 sequence with R216S, R217F, K220G

[18] = molecular target: T18, PUM1 PUF domain R6-SWA N1043S + Y1044W + Q1047A (UniProt Q14671)
T18 sequence: T1 sequence with R216S, R217W, K220A

[19] = molecular target: T19, PUM1 PUF domain R6-SFS N1043S + Y1044F + Q1047S (Homo sapiens) (UniProt Q14671)
T19 sequence: T1 sequence with R216S, R217F, K220S

[20] = molecular target: T20, PUM1 PUF domain R6-SHE N1043S + Y1044H + Q1047E (UniProt Q14671)
T20 sequence: T1 sequence with R216S, R217H, K220E

Sequence | binding signal (log2 enrichment (interaction score)) [1] | binding signal (log2 enrichment (interaction score)) [2] | binding signal (log2 enrichment (interaction score)) [3] | binding signal (log2 enrichment (interaction score)) [4] | binding signal (log2 enrichment (interaction score)) [5] | binding signal (log2 enrichment (interaction score)) [6] | binding signal (log2 enrichment (interaction score)) [7] | binding signal (log2 enrichment (interaction score)) [8] | binding signal (log2 enrichment (interaction score)) [9] | binding signal (log2 enrichment (interaction score)) [10] | binding signal (log2 enrichment (interaction score)) [11] | binding signal (log2 enrichment (interaction score)) [12] | binding signal (log2 enrichment (interaction score)) [13] | binding signal (log2 enrichment (interaction score)) [14] | binding signal (log2 enrichment (interaction score)) [15] | binding signal (log2 enrichment (interaction score)) [16] | binding signal (log2 enrichment (interaction score)) [17] | binding signal (log2 enrichment (interaction score)) [18] | binding signal (log2 enrichment (interaction score)) [19] | binding signal (log2 enrichment (interaction score)) [20]
GGCUAGAACUAGUGGAUCCCCCGGCGCCCGGCGGCUCGAGCCCGGGUAAGUGUAAAUAGUCUGCAUGCCGCCGGGCGCCAUGCCUGCAGGUCGACUCUAGAAAACAUG | -1.3 | – | – | – | – | – | – | – | – | – | – | – | – | – | – | – | – | – | – | –
GGCUAGAACUAGUGGAUCCCCCGGCGCCCGGCGGCUCGAGCCCGGGUAAGUGGAAAUAGUCUGCAUGCCGCCGGGCGCCAUGCCUGCAGGUCGACUCUAGAAAACAUG | – | < -8.52 | < -8.25 | < -7.86 | < -7.01 | < -7.82 | < -7.21 | < -10 | < -7.7 | -7.47 | < -7.97 | -2.57 | < -7.19 | < -9.25 | -5.36 | < -8.31 | -5.7 | < -8.85 | – | –
GGCUAGAACUAGUGGAUCCCCCGGCGCCCGGCGGCUCGAGCCCGGGUAAGUGAAAAUAGUCUGCAUGCCGCCGGGCGCCAUGCCUGCAGGUCGACUCUAGAAAACAUG | -4.38 | – | – | – | – | – | – | – | – | – | – | – | – | – | – | – | 1.21 | – | -0.58 | -3.11
GGCUAGAACUAGUGGAUCCCCCGGCGCCCGGCGGCUCGAGCCCGGGUAAGUGCAAAUAGUCUGCAUGCCGCCGGGCGCCAUGCCUGCAGGUCGACUCUAGAAAACAUG | – | < -8.01 | < -7.62 | < -7.66 | < -7.8 | -6.6 | < -7.86 | -7.15 | < -7.96 | < -7.37 | < -6.68 | -2.98 | < -6.01 | < -7.31 | 0.32 | < -7.63 | – | < -7.8 | -3.96 | -4.97
